Test results reported in CN109942705A.
These are yes or no findings as the source states them, for the method shown. Some entries that bind do so weakly or less than the wild type. Each block holds one binder with its values, some of them ahead of it.

Experiments:
绵羊MSTN蛋白 (绵羊 (sheep)) [1] = target: T1, 绵羊MSTN蛋白 (绵羊 (sheep)) (UniProt O18830); experiment: ELISA, MSTN protein coated at 200 ng/well, nanobody in serial dilution, anti-alpaca secondary antibody
T1 sequence (looked up): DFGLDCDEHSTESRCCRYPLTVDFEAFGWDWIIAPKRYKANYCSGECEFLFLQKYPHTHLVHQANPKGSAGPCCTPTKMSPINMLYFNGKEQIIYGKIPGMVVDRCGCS

绵羊MSTN蛋白 (绵羊 (sheep)) [2] = target: T1, 绵羊MSTN蛋白 (绵羊 (sheep)); experiment: phage display panning and ELISA screening (earlier work of the same laboratory)

- binding (绵羊MSTN蛋白 (绵羊 (sheep)) [1]): binds
B1: 双价绵羊MSTN纳米抗体 (VHH)
chain: GTQLQLVESGGGSVQAGGSLSLSCAASGYTYVSRYMGWFRQAPGNEREGVATIYTAGISTYYDASVKGRFTISKDNAKNTVYLQMNSLKPEDTAMYYCAATHDDYGGSGSRLSPASYAYWGQGTQVTVSSEPKTPKPQGPRGLGGGGSGGGGSGGGGSQLQLVESGGGSVQAGGSLSLSCAASGYTYVSRYMGWFRQAPGNEREGVATIYTAGISTYYDASVKGRFTISKDNAKNTVYLQMNSLKPEDTAMYYCAATHDDYGGSGSRLSPASYAYWGQGTQVTVSSEPKTPKPQGPRGLLE

- binding (绵羊MSTN蛋白 (绵羊 (sheep)) [2]): binds
B2: 单价绵羊MSTN纳米抗体 (VHH)
VHH: QLQLVESGGGSVQAGGSLSLSCAASGYTYVSRYMGWFRQAPGNEREGVATIYTAGISTYYDASVKGRFTISKDNAKNTVYLQMNSLKPEDTAMYYCAATHDDYGGSGSRLSPASYAYWGQGTQVTVSS
